Publication PMC10886832
These are yes or no findings as the source states them, for the method shown. Binding seen in cells or lysates may run through a third protein. Some binding calls cover weakened binding; strength is not graded here.

Protein sequences, listed by entry. Tags and fused reporters are not part of them.
UniProt P04150: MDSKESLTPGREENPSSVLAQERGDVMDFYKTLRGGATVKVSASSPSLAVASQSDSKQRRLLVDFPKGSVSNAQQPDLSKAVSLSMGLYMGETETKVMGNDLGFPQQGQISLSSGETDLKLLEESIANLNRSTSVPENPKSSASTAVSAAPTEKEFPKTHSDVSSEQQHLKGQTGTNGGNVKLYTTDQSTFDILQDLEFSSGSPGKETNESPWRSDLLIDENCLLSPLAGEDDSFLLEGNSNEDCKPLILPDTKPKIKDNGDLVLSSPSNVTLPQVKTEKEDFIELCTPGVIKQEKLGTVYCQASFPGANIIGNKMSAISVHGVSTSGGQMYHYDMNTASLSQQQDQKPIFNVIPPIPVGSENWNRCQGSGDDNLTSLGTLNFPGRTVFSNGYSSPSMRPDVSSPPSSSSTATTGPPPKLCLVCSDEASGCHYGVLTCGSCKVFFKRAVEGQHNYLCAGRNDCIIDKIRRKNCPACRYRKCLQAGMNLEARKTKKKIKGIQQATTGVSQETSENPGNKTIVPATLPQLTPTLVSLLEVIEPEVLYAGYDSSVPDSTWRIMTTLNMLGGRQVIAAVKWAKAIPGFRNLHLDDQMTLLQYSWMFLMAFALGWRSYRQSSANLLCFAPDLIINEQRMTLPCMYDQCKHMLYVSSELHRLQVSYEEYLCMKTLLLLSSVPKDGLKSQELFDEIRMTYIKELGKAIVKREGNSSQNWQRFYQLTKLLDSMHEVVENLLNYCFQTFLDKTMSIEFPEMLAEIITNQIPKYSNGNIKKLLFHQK

Biological target: ten-eleven translocation 2 (UniProt Q6N021)
Assay: co-IP; in HEK293T cells; unpublished data; bait and prey not stated

**Q.** “glucocorticoid receptor (from UniProt P04150 1-777)” was tested. Which binding did it give?
**A.** Its binding is “binds”.
